Reference: PubChem BioAssay AID1224830 (NIAID, 2016)
Here is one part, drawn at random, of about 18,000 reagents. About 2,900 of them (16%) count as active. 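Calls are made per well; low scores hint the gene aids the LPS response, high scores that it dampens it.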 Repeated entries: four replicate wells of each siRNA pool.

Assay: 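Host factors that control LPS-induced TNF expression in human macrophages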 (primary screen)
System: human THP-1 monocytic leukaemia cells, TNF dual-luciferase reporter clone, PMA-differentiated to macrophage-like cells
Reagents: siRNA pool against human genes, 50 nM
Duration: LPS for 4 h, given about 3 days after siRNA transfection
Treatment: bacterial LPS (TLR4 ligand), 10 ng/ml
Measured: 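Ratio of firefly to renilla light, scaled to the plate median and expressed as a robust z-score per replicate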
Scale: TNF reporter robust z-score: higher = stronger TNF reporter response to LPS
Active means: 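Each well counts as active if its z-score is over 2.8 or under -1.5; controls are left without a call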

CREBZF (CREB/ATF bZIP transcription factor) → TNF reporter robust z-score: 0.2; Call: inactive
CREBZF (CREB/ATF bZIP transcription factor) → TNF reporter robust z-score: 0.42; Call: inactive
CREBZF (CREB/ATF bZIP transcription factor) → TNF reporter robust z-score: -0.21; Call: inactive
CREBZF (CREB/ATF bZIP transcription factor) → TNF reporter robust z-score: 0.57; Call: inactive
FSCB (fibrous sheath CABYR binding protein) → TNF reporter robust z-score: -1.39; Call: inactive
FSCB (fibrous sheath CABYR binding protein) → TNF reporter robust z-score: 0.53; Call: inactive
FSCB (fibrous sheath CABYR binding protein) → TNF reporter robust z-score: 0.79; Call: inactive
FSCB (fibrous sheath CABYR binding protein) → TNF reporter robust z-score: 0.16; Call: inactive
ARL2BP (ARF like GTPase 2 binding protein) → TNF reporter robust z-score: 1.16; Call: inactive
ARL2BP (ARF like GTPase 2 binding protein) → TNF reporter robust z-score: 0.68; Call: inactive
ARL2BP (ARF like GTPase 2 binding protein) → TNF reporter robust z-score: -0.45; Call: inactive
ARL2BP (ARF like GTPase 2 binding protein) → TNF reporter robust z-score: 0.95; Call: inactive
SLC35A3 → TNF reporter robust z-score: -1.16; Call: inactive
SLC35A3 → TNF reporter robust z-score: -0.48; Call: inactive
SLC35A3 → TNF reporter robust z-score: -0.82; Call: inactive
SLC35A3 → TNF reporter robust z-score: -0.97; Call: inactive
TAS2R10 (taste 2 receptor member 10) → TNF reporter robust z-score: -1.22; Call: inactive
TAS2R10 (taste 2 receptor member 10) → TNF reporter robust z-score: -0.2; Call: inactive
TAS2R10 (taste 2 receptor member 10) → TNF reporter robust z-score: -0.37; Call: inactive
TAS2R10 (taste 2 receptor member 10) → TNF reporter robust z-score: 0.25; Call: inactive

Continued.
RIC8A (RIC8 guanine nucleotide exchange factor A) → TNF reporter robust z-score: -0.58; Call: inactive
RIC8A (RIC8 guanine nucleotide exchange factor A) → TNF reporter robust z-score: 0; Call: inactive
RIC8A (RIC8 guanine nucleotide exchange factor A) → TNF reporter robust z-score: -0.14; Call: inactive
RIC8A (RIC8 guanine nucleotide exchange factor A) → TNF reporter robust z-score: -0.07; Call: inactive
RRP15 (ribosomal RNA processing 15 homolog) → TNF reporter robust z-score: 0.11; Call: inactive
RRP15 (ribosomal RNA processing 15 homolog) → TNF reporter robust z-score: 1.3; Call: inactive
RRP15 (ribosomal RNA processing 15 homolog) → TNF reporter robust z-score: 0.8; Call: inactive
RRP15 (ribosomal RNA processing 15 homolog) → TNF reporter robust z-score: 1.48; Call: inactive
REG1A (regenerating family member 1 alpha) → TNF reporter robust z-score: 0.58; Call: inactive
REG1A (regenerating family member 1 alpha) → TNF reporter robust z-score: 0.2; Call: inactive
REG1A (regenerating family member 1 alpha) → TNF reporter robust z-score: -0.2; Call: inactive
REG1A (regenerating family member 1 alpha) → TNF reporter robust z-score: -0.06; Call: inactive
